Measured values: publication PMC6802120, “Concatenation of 14-3-3 with partner phosphoproteins as a tool to study their interaction” (Scientific Reports, 2019)
These are yes or no findings as the source states them, for the method shown.

Sequences of proteins named here, by UniProt entry; tags and fusion partners are left off. A change or cut given only in a name is not applied to a line headed by its entry.
UniProt P31947: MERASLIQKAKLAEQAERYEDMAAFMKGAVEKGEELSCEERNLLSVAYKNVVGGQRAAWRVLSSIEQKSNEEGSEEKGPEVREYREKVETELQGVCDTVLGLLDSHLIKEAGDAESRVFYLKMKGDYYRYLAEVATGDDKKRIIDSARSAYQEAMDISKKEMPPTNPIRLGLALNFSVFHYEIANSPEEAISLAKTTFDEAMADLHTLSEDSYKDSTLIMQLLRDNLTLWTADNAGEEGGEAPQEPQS

Target: 14-3-3σ∆C (C-terminally truncated human 14-3-3σ, residues 1-231) (human) (UniProt P31947)
Test: SEC; fluorescence-assisted size-exclusion spectrochromatography, Superdex 200 Increase 5/150, SEC buffer; detection at 230 nm absorbance and Trp fluorescence (excitation 298 nm, emission 360 nm); proteins alone and mixed; both purified

B1: HSPB6 ACD (α-crystallin domain, residues 72-149) (domain or fragment, human, UniProt O14558 72-149, looked up)
chain: GHFSVLLDVKHFSPEEIAVKVVGEHVEVHARHEERPDEHGFVAREFHRRYRLPPGVDPAAVTSALSPEGVLSIQAAPA
notes: human small heat shock protein HSPB6, α-crystallin domain, residues 72-149; also called ACD dimer; isolated ACD
binding: no binding (tested: very high micromolar concentrations)
